Measured values published in article PMC7948406.
Results are given in words; binding and its absence hold for the method and conditions named. Binding seen in cells or lysates may run through a third protein. Some entries that bind do so weakly or less than the wild type.

Chains of the proteins cited; added tags and fusions are not shown.
UniProt E9Q2Z1: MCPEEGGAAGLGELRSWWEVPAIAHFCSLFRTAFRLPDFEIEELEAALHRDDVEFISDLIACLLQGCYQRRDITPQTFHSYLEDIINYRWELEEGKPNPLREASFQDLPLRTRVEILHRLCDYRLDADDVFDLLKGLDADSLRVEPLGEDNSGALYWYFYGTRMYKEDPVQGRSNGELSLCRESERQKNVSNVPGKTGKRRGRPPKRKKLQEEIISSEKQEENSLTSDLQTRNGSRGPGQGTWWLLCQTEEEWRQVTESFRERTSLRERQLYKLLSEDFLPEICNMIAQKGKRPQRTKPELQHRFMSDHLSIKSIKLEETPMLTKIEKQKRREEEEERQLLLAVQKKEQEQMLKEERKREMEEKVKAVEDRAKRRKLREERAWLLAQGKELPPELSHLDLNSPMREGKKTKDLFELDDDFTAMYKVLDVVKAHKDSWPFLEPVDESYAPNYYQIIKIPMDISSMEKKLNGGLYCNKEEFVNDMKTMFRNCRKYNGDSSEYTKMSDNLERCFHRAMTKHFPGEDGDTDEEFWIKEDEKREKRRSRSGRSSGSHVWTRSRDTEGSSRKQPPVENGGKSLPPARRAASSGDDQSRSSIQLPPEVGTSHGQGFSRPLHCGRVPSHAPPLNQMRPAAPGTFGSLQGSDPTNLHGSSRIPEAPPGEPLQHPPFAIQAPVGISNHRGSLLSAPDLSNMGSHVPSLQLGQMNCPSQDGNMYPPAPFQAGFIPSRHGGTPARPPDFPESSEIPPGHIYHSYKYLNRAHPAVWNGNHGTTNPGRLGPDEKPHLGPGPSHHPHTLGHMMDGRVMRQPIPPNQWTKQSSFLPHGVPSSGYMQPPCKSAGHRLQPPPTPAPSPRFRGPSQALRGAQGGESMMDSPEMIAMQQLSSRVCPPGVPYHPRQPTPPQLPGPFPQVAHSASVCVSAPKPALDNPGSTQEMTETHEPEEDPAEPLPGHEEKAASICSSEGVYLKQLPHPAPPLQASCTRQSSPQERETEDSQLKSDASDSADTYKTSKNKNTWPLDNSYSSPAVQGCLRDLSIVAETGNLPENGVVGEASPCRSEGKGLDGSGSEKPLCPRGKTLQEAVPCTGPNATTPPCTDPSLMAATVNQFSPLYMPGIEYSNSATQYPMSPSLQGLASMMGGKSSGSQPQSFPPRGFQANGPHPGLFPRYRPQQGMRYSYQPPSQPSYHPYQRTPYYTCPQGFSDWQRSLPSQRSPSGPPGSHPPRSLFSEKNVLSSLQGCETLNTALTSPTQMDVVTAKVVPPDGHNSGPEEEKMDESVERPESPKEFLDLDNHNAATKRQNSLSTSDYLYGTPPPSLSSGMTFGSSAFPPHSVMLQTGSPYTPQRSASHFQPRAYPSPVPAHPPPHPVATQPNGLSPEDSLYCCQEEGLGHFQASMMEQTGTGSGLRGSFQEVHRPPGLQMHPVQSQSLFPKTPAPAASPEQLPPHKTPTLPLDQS
UniProt Q6PGB8: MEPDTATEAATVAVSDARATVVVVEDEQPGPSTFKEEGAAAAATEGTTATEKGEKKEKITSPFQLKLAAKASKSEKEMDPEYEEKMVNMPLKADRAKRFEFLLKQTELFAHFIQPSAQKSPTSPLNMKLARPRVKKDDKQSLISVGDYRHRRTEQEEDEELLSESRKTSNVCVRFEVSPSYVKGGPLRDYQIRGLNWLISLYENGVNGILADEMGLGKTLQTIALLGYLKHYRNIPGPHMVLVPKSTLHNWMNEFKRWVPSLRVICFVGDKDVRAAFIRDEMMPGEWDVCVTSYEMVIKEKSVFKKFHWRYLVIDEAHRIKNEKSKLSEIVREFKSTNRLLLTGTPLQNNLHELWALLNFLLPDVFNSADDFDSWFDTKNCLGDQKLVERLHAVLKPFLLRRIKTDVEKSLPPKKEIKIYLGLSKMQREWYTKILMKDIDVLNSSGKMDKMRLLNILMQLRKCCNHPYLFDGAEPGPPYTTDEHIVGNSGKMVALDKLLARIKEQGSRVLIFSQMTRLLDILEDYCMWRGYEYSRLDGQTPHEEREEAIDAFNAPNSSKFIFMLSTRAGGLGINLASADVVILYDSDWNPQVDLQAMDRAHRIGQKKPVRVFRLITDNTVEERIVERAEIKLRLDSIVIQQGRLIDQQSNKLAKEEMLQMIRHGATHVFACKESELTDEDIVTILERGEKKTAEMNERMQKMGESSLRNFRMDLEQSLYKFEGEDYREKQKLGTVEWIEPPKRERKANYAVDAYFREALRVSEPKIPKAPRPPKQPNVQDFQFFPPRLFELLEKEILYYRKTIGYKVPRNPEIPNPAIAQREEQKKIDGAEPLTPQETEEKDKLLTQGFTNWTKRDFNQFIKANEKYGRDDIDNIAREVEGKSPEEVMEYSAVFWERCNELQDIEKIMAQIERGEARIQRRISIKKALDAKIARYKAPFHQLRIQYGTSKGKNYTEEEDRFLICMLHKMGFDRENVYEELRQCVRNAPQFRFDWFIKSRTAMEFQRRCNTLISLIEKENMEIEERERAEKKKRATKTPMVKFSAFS

Target: CECR2-HA (UniProt E9Q2Z1)
Test: co-IP; both co-expressed in Plat-E cells (results: 293 cells), lysed 36 h after transfection in 150 mM NaCl, 50 mM Tris-HCl pH 7.4, 2 mM EDTA, 1% NP-40; anti-HA beads 40 min at room temperature; blots with anti-HA and anti-FLAG

Q: How did the binding turn out when “SMARCA1-3×FLAG (from UniProt Q6PGB8 1-1046)” was run?
A: binds
